This list was built around the results that the source calls inconclusive (neither active nor inactive); the mix of calls is not that of the screen. Potencies beside an inconclusive call are fits to weak or partial responses and may not hold up. Activity calls are given as the source filed them. Calls follow the shape of the dose curve; as a rule, active = well fitted inhibition curve with a large enough effect; inconclusive = small, poorly fitted or top-dose-only effect; inactive = flat fitted curve, though single readings scatter.
target: Luciferin 4-monooxygenase (Photinus pyralis) (UniProt P08659); test: FLuc inhibitory activity for the follow-up compounds in a biochemical assay with Km concentrations of substrate and 500microM CoASH; conditions: purified FLuc, Km substrates + 500 uM CoASH, luminescence; series mostly up to 57.5 µM; activity change, negative = inhibition: at the top concentration
From the text: NCGC Assay Overview: Firefly (Photinus pyralis) luciferase is one of the most commonly used transcriptional reporters. It is considered one of the more dynamically responsive reporters - that is, responsive to changes in reporter transcription - as it requires no post-translational modifications and is enzymatically active directly after protein synthesis (Wood, 1998). With no endogenous expression in mammalian cells and without the requirement of external excitation, it offers very little background signal, thus generally providing excellent signal to background for most assays. Previous profiling work to determine the prevalence of compounds that affect FLuc enzymatic activity (PubChem AID 411) identified that ~3% of the MLSMR library (then at ~72K) inhibited FLuc. […] Of the compounds identified in this profile that inhibited FLuc, 151 compounds were selected for further analysis, in an effort to better understand their mode of inhibiting FLuc. The assay described here was to determine the activity of the compounds in an FLuc assay that contained KM concentrations of substrates and 500uM CoASH.
NCGC Assay Protocol Summary: Reagents: 50mM Tris acetate, pH 7.5; 10mM Mg acetate; 10uM D-luciferin (Sigma #L9504); 10uM ATP; 0.01% Tween-20; 0.05% BSA; 10nM P. pyralis luciferase (Sigma #L9506); 500 uM CoASH Control compounds used were two known firefly luciferase inhibitors (3-(5-(3-chlorophenyl)-1,2,4-oxadiazol-3-yl)benzoic acid and 5-(2-fluorophenyl)-3-phenyl-1,2,4-oxadiazole), and DMSO. Three microliters containing firefly luciferase substrates in buffer (final concentrations: 50mM Tris acetate, pH 7.5, 10mM Mg acetate, 0.01% Tween-20, 0.05% BSA, 10uM D-luciferin, 10uM ATP, and 500 uM CoASH) are dispensed into each well of a Greiner white, solid-bottom 1536-well format plate using a flying reagent dispenser (FRD). These assay plates were then treated with 23nL of compound or DMSO using a Kalypsys pin tool, which allows for delivery of a 12-point intraplate titration of each compound to the assay plate (quantitative HTS), with a final compound concentrations ranging from approximately ~60uM to 0.3nM. One microliter of firefly luciferase in 500mM Tris-acetate buffer was then delivered by FRD to each well for a final enzyme concentration of 10nM. Luciferase activity was then measured using a ViewLux CCD imager (PerkinElmer), with an average exposure time of 2-30 seconds (2X binning, medium/high gain).

Protein sequences, listed by entry. Tags and fused reporters are not part of them.
UniProt P08659, whole entry, looked up: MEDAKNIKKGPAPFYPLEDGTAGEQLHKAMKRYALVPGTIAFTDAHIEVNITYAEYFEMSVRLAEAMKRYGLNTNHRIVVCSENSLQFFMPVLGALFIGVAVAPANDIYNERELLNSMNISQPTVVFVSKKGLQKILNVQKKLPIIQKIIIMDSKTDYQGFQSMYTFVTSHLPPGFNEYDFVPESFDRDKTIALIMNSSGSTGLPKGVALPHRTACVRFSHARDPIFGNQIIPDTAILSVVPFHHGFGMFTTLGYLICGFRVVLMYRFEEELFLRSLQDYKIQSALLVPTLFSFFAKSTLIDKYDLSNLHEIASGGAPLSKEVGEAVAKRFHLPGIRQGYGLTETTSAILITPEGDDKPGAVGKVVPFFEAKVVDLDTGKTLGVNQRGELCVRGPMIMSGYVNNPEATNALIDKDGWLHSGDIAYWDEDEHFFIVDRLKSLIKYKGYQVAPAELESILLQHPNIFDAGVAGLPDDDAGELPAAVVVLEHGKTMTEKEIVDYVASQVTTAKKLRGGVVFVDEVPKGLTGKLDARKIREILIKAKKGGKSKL

SMILES	Potency	activity change, negative = inhibition
COc1cc(OC)cc(C(=O)Nc2ccc(-c3nc4ccccc4s3)c(C)c2)c1	inconclusive: 46.1 µM [inhibitor, partial curve, poor fit]	
CN(C)S(=O)(=O)c1ccc(C(=O)Nc2cccc(C(=O)O)c2)cc1	inconclusive: 18.3 µM [inhibitor, partial curve, poor fit]	
COc1ccc(Br)cc1C(=O)Nc1ccc(C(=O)O)cc1	inconclusive: 23.1 µM [inhibitor, partial curve, poor fit]	
O=C(Nc1ccccc1-c1nc2ccccc2s1)c1ccc(Br)o1		inactive: -3.85%
O=C(Nc1ccccc1C(=O)O)c1cc(S(=O)(=O)Nc2cccc(F)c2)ccc1Cl	inconclusive: 32.6 µM [inhibitor, partial curve, poor fit]	
COc1ccc(-c2nc3ccccc3s2)cc1NC(=O)c1ccc(F)cc1		inactive: -19.4%
CCOc1ccc2nc(NC(=O)c3cc([N+](=O)[O-])ccc3N3CCOCC3)sc2c1	inconclusive: 16.3 µM [inhibitor, partial curve]	

Source: PubChem BioAssay AID602358 (National Center for Advancing Translational Sciences (NCATS), 2012)
